Results on 1 molecule are retold here after paper PMC10269511.

No constants are given. Whether binding was seen depends on the method and setting. Binding seen in cells or lysates may run through a third protein. Some results given as binding are weak or reduced against the parent protein; the word gives no strength.

The target of this assay is T1, ASC (mouse, endogenous in J774A.1 macrophages) (mouse (endogenous in J774A.1)) (UniProt Q9EPB4).
T1 sequence: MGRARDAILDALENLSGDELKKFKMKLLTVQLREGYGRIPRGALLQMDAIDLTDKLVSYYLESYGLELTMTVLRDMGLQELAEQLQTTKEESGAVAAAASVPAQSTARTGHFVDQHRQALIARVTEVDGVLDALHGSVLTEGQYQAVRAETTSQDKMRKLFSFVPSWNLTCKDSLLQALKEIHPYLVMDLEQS
Briefly: co-IP.

B1: AIM2 (absent in melanoma 2; mouse, endogenous in J774A.1 macrophages) (protein, UniProt Q91VJ1 1-354)
chain: MESEYREMLLLTGLDHITEEELKRFKYFALTEFQIARSTLDVADRTELADHLIQSAGAASAVTKAINIFQKLNYMHIANALEEKKKEAERKLMTNTKKRGTQKVENRSQAENCSAASATRSDNDFKEQAATEVCPQAKPQKKQMVAEQEAIREDLQKDPLVVTVLKAINPFECETQEGRQEIFHATVATETDFFFVKVLNAQFKDKFIPKRTIKISNYLWHSNFMEVTSSSVVVDVESNHEVPNNVVKRARETPRISKLKIQPCGTIVNGLFKVQKITEEKDRVLYGIHDKTGTMEVLVLGNPSKTKCEEGDKIRLTFFEVSKNGVKIQLKSGPCSFFKVIKAAKPKTDMKSVE
Consider B1, for which the binding result is reported as “binds”.
